# Assay results as given in US7413853B2, “Modulation of metabolism of steroids and xenobiotics” (The Salk Institute for Biological Studies, priority 2001, dated 2008).
# Tested on: SXR
# Procedure: To characterize its response properties, a large variety of steroids, including intermediate and major products of known steroid biosynthetic pathways were tested.
compound,measurement,value
COC(=O)C1=C(C)NC(C)=C(C(=O)OC)C1c1ccccc1[N+](=O)[O-] [nifedipine],activation of SXR by compounds known to induce CYP3A4,most potent activators
